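Human melanoma cell lines in 1,536-well plates were treated with two drugs together for 72 h, then fixed, stained and imaged. Values are the share of nuclei positive for cleaved PARP as a percentage of the same share in the DMSO control: 100 is the control level, higher means more apoptosis. Every drug was used at one fixed concentration, the higher of two screened. No replicate spread is given; individual values may be noisy. The marker varies much from line to line, for technical or biological reasons.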
An unselected part of the screen is shown.
A dash means that no value is listed here.

All values are for the listed drug together with CX-4945 (2 µM): O=C(O)c1ccc2c(c1)nc(Nc1cccc(Cl)c1)c1ccncc12

Partner	UACC-62	WM451Lu	A101D	COLO 792	SK-MEL-2	IST-MEL1	COLO 829	LOX IMVI	SK-MEL-5	WM1745	G-361	IPC-298
O=C1NC(=O)/C(=C/c2ccc(-c3ccc(F)cc3O)o2)S1 at 5 µM	281	304	345	115	193	344	223	132	440	-	160	180
Cc1cc(Nc2cc(N3CCN(C)CC3)nc(Sc3ccc(NC(=O)C4CC4)cc3)n2)n[nH]1 at 0.03 µM	387	53.4	120	166	212	170	356	83.8	151	291	204	108
COc1cc(N2CCC(N3CCN(C)CC3)CC2)ccc1Nc1ncc(Cl)c(Nc2ccccc2S(=O)(=O)C(C)C)n1 at 0.4 µM	360	244	431	196	241	194	172	107	157	-	285	55.7
O=C(O)[C@@H]1[O][Sb](=[O])([O][Sb]2(=[O])[O][C@H]([C@H](O)CO)[C@H](O)[C@H](C(=O)O)[O]2)[O][C@H]([C@H](O)CO)[C@@H]1O (stereo partly specified) at 10 µM	235	58.9	65.5	198	181	136	127	172	194	154	173	229
CCCCCCCCCCCCCCCCCCOP(=O)([O-])OC1CC[N+](C)(C)CC1 at 2 µM	184	430	327	124	104	87.3	78.8	283	324	115	114	112
Cc1nc(Nc2ncc(C(=O)Nc3c(C)cccc3Cl)s2)cc(N2CCN(CCO)CC2)n1 at 0.02 µM	343	160	104	369	288	180	541	374	127	249	90.6	108
N.N.[Cl][Pt][Cl] at 8 µM	137	44.1	104	138	168	167	127	63.9	87.4	143	141	68.2
COc1cc(Nc2ncc(F)c(Nc3ccc4c(n3)NC(=O)C(C)(C)O4)n2)cc(OC)c1OC at 2 µM	214	151	657	341	126	303	471	528	391	247	160	296
Oc1cc(-c2nc(-c3ccccc3)[nH]c2-c2ccncc2)ccc1Cl at 1 µM	509	339	510	84.6	1230	285	187	229	301	-	404	62.9
CC1(C)CCC(c2ccc(Cl)cc2)=C(CN2CCN(c3ccc(C(=O)NS(=O)(=O)c4ccc(N[C@H](CCN5CCOCC5)CSc5ccccc5)c(S(=O)(=O)C(F)(F)F)c4)cc3)CC2)C1 at 2 µM	286	151	202	8240	838	221	500	178	227	2200	518	239
Cn1c(Nc2ccc(C(F)(F)F)cc2)nc2cc(Oc3ccnc(-c4ncc(C(F)(F)F)[nH]4)c3)ccc21 at 0.4 µM	284	342	611	625	480	43.8	186	110	4080	206	927	145
COc1ccc(C2=N[C@@H](c3ccc(Cl)cc3)[C@@H](c3ccc(Cl)cc3)N2C(=O)N2CCNC(=O)C2)c(OC(C)C)c1 at 0.5 µM	460	84.6	107	165	351	93.4	545	91.1	215	176	192	39.8
CCN(CC)CCNC(=O)c1c(C)[nH]c(/C=C2\C(=O)Nc3ccc(F)cc32)c1C at 2 µM	190	77.5	108	110	178	152	150	78.8	286	178	189	155
CC(C)CCN1c2nc(Nc3cc(F)c(O)c(F)c3)ncc2N(C)C(=O)C1C (stereo unspecified) at 1 µM	670	225	194	189	139	67.8	150	279	161	-	322	231
Cn1cc(/C=C2\C(=O)Nc3cccnc32)c2ccccc21 at 2 µM	216	191	515	132	-	87.6	170	163	156	-	191	152
CC1(C)NC(=O)N(c2ccc([N+](=O)[O-])c(C(F)(F)F)c2)C1=O at 5 µM	189	92.2	214	18.1	97.5	134	220	60.9	201	287	91.5	74.8
NC1(c2ccc(-c3nc4ccn5c(=O)[nH]nc5c4cc3-c3ccccc3)cc2)CCC1 at 2 µM	385	236	274	293	139	152	225	61.3	476	142	159	135
Nc1cccc2c1CN(C1CCC(=O)NC1=O)C2=O (stereo unspecified) at 5 µM	275	40.7	164	172	306	132	236	376	108	137	37.2	80.6
O=C(/C=C/c1cccnc1)NCCCCC1CCN(C(=O)c2ccccc2)CC1 at 0.05 µM	230	114	81.4	473	3010	252	393	83.8	61.8	128	4290	525
COc1ccc2c(c1)CCC1C2CCC2(C)C(NCCCCCCN3C(=O)C=CC3=O)CCC12 (stereo unspecified) at 2 µM	454	305	229	80.7	168	54.2	385	124	217	-	132	41.2
C=CCNC1=C2C[C@@H](C)C[C@H](OC)[C@H](O)[C@@H](C)/C=C(\C)[C@H](OC(N)=O)[C@@H](OC)/C=C\C=C(/C)C(=O)NC(=CC1=O)C2=O at 0.01 µM	390	255	110	354	126	119	150	232	364	380	351	75.0
COc1cc([C@@H]2c3cc4c(cc3[C@@H](O[C@@H]3O[C@@H]5CO[C@@H](C)O[C@H]5[C@H](O)[C@H]3O)[C@H]3COC(=O)[C@H]23)OCO4)cc(OC)c1O at 0.1 µM	364	40.3	73.0	55.9	277	53.0	305	-	96.5	103	161	77.8
O=C(O)C(=O)Nc1sc2c(c1C(=O)O)CCNC2 at 8.33 µM	271	171	97.9	92.8	123	74.6	355	103	151	-	346	153
CC(C)C[C@H](NC(=O)[C@H](Cc1ccccc1)NC(=O)c1cnccn1)B(O)O at 0.005 µM	354	1160	1040	632	246	918	1320	243	5970	416	5030	2260
CC(C)(C)c1cnc(CSc2cnc(NC(=O)C3CCNCC3)s2)o1 at 0.05 µM	232	108	146	200	426	55.9	172	198	119	250	226	156
Cn1nnc2c(C(N)=O)ncn2c1=O at 10 µM	301	105	204	241	416	125	367	104	295	142	265	155
O=C(Oc1ccc([N+](=O)[O-])cc1)N1CCC(C(O)(c2ccc3c(c2)OCO3)c2ccc3c(c2)OCO3)CC1 at 5 µM	271	125	123	34.8	171	47.5	106	51.1	152	-	142	39.6
C/C(O)=C(\C#N)C(=O)Nc1cc(Br)ccc1Br at 10 µM	576	62.1	691	146	-	73.3	311	21.3	152	-	260	53.5
CCN(CC)CCCCNc1ncc2cc(-c3cc(OC)cc(OC)c3)c(NC(=O)NC(C)(C)C)nc2n1 at 0.5 µM	277	178	150	173	372	121	248	191	34.8	-	149	107
c1cc(-c2cnn3cc(-c4ccc(OCCN5CCCCC5)cc4)cnc23)ccn1 at 2 µM	225	174	42.9	244	-	73.2	288	84.5	141	-	301	74.3
C[C@]12O[C@H](C[C@]1(O)CO)n1c3ccccc3c3c4c(c5c6ccccc6n2c5c31)CNC4=O at 0.02 µM	147	85.6	90.0	256	195	169	138	93.3	782	128	280	191
Cc1ccc(Nc2nccc(N(C)c3ccc4c(C)n(C)nc4c3)n2)cc1S(N)(=O)=O at 2 µM	321	57.8	195	261	60.8	134	185	158	544	99.8	105	181

Once more, the final 4:

Partner,UACC-62,WM451Lu,A101D,COLO 792,SK-MEL-2,IST-MEL1,COLO 829,LOX IMVI,SK-MEL-5,WM1745,G-361,IPC-298
CCN(CC)CCCCNc1ncc2cc(-c3cc(OC)cc(OC)c3)c(NC(=O)NC(C)(C)C)nc2n1 at 0.5 µM,277,178,150,173,372,121,248,191,34.8,-,149,107
c1cc(-c2cnn3cc(-c4ccc(OCCN5CCCCC5)cc4)cnc23)ccn1 at 2 µM,225,174,42.9,244,-,73.2,288,84.5,141,-,301,74.3
C[C@]12O[C@H](C[C@]1(O)CO)n1c3ccccc3c3c4c(c5c6ccccc6n2c5c31)CNC4=O at 0.02 µM,147,85.6,90.0,256,195,169,138,93.3,782,128,280,191
Cc1ccc(Nc2nccc(N(C)c3ccc4c(C)n(C)nc4c3)n2)cc1S(N)(=O)=O at 2 µM,321,57.8,195,261,60.8,134,185,158,544,99.8,105,181

From a melanoma drug combination screen (doi:10.1371/journal.pone.0140310); values rounded.